PubChem BioAssay AID1259254, NCATS | 2017

Screen: 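Genome-wide screen for genes that prevent DNA re-replication in cancer cells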 (primary screen)
Cell system: human HCT116 colorectal cancer cells
Knock-down reagent: single siRNA against human genes
Time to read-out: 3 days
Read-out: 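Imaged Hoechst DNA stain sorts each cell into a cycle phase by DNA amount; per plate, G2 fraction set to 0% for non-targeting and 100% for GMNN siRNA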
Direction: G2 robust z-score and G2 cells, % of GMNN control: higher = more G2 cells, more excess DNA replication; raw share of cells in G2: higher = larger share of cells with G2 DNA content
Call rule: 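Active siRNAs have a G2 robust z of 5 or more median absolute deviations over the median, which in these data means about 38% or higher of GMNN control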
The deposit covers about 59,000 reagents; below is a random part of them. About 1,550 of all reagents (2.6%) were called active. 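G2 share is only a proxy for re-replication; each gene was hit by three separate siRNAs, and active genes were retested.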 Raw values vary from plate to plate and are shown uncorrected. Unmarked entries are inactive. The record does not give: the amount of reagent.

| gene symbol | PubChem SID | G2 robust z-score | G2 cells, % of GMNN control | raw share of cells in G2 (%) |
| --- | --- | --- | --- | --- |
| SCD | SID160716375 | -0.0713 | 2.47 | 6.51 |
| SCD | SID160716376 | 0.903 | 9.32 | 7.74 |
| SCD | SID160716377 | -0.0329 | 2.74 | 4.86 |
| PAPSS1 | SID160721381 | 0.663 | 7.63 | 7.96 |
| PAPSS1 | SID160721382 | -0.235 | 1.32 | 5.67 |
| PAPSS1 | SID160721383 | -0.175 | 1.74 | 4.24 |
| TMEM209 | SID160752960 | -0.468 | -0.328 | 3.94 |
| TMEM209 | SID160752962 | 0.648 | 7.53 | 5.36 |
| TMEM209 | SID160752963 | 1.03 | 10.2 | 6.17 |
| CEACAM1 | SID160726095 | 0.362 | 5.52 | 7.04 |
| CEACAM1 | SID160726166 | 0.183 | 4.25 | 5.57 |
| CEACAM1 | SID160726226 | -0.419 | 0.0218 | 4.73 |
| PGCKA1 | SID160743442 | -0.655 | -1.64 | 3.89 |
| PGCKA1 | SID160743443 | 2.87 | 23.1 | 13.7 |
| PGCKA1 | SID160743444 | 0.482 | 6.36 | 5.16 |
| REELD1 | SID160764832 | 0.598 | 7.18 | 6.45 |
| REELD1 | SID160764834 | -0.591 | -1.19 | 2.74 |
| REELD1 | SID160764835 | 0.687 | 7.8 | 7.33 |
| CHRM4 | SID160743088 | -1.17 | -5.25 | 3.97 |
| CHRM4 | SID160743098 | -0.811 | -2.74 | 3.56 |
| CHRM4 | SID160743109 | 1.39 | 12.7 | 7.17 |
| OR2G3 | SID160750731 | -0.698 | -1.94 | 3.64 |
| OR2G3 | SID160750732 | 0.756 | 8.29 | 7.93 |
| OR2G3 | SID160750733 | -0.41 | 0.0846 | 2.4 |
| ELP3 | SID160743038 | -0.651 | -1.61 | 3.66 |
| ELP3 | SID160743039 | -1.25 | -5.84 | 3.87 |
| ELP3 | SID160743040 | -0.608 | -1.31 | 3.97 |
| COXFA4L3 | SID160735100 | -0.636 | -1.5 | 1.95 |
| COXFA4L3 | SID160752224 | 1.15 | 11.1 | 7.79 |
| COXFA4L3 | SID160752225 | 1.35 | 12.4 | 7.14 |

4 successive records already listed:
| gene symbol | PubChem SID | G2 robust z-score | G2 cells, % of GMNN control | raw share of cells in G2 (%) |
| --- | --- | --- | --- | --- |
| REELD1 | SID160764835 | 0.687 | 7.8 | 7.33 |
| CHRM4 | SID160743088 | -1.17 | -5.25 | 3.97 |
| CHRM4 | SID160743098 | -0.811 | -2.74 | 3.56 |
| CHRM4 | SID160743109 | 1.39 | 12.7 | 7.17 |
